From patent US10087478B2, “Compositions comprising a polypeptide having cellulolytic enhancing activity and a nitrogen-containing compound and uses thereof” (priority 2010, dated 2018)
Some results were stated once for a whole list of compounds, not compound by compound. At least one compound was matched to its structure with a doubt left.

Tested on: Trichoderma reesei cellulase composition
Assay: Nitrogen-containing compound effect(no GH61) on hydrolysis of AVICEL by T. reesei cellulase composition
Type: biochemical
Settings: pterin dissolved in DMSO; cellulose 29.5 mg per ml; general statement (FIGS. 1C, 1D)
Description: The concentration of 1,2-benzenediamine compounds was 5 mM and the concentration of 2-aminophenol was 1 mM.
The concentration of nitrogen-containing compounds was 5 mM.
The concentration of the GH61 polypeptide was either 0.4 or 2 mg per g cellulose.

## CC1Nc2nc(N)[nH]c(=O)c2NC1C.Cl (stereo not shown) [6,7-dimethyl-5,6,7,8-tetrahydropterine hydrochloride]
  nitrogen-containing compound effect(no GH61): less than 1
